Assay results from patent US12213860B2, “Method for separating mammalian sperm, artificial insemination method, and in vitro fertilization method” (Hiroshima University, priority 2017, dated 2025).
At least one compound was matched to its structure with a doubt left.

How the values were obtained:
[1] = system: pig sperm; assay: Pig sperm incubated in medium with TLR7 ligand; percentage of floating sperm; format: cell-based; details: R-848 0.3 μM, 2 hours
[2] = system: mouse sperm; assay: Mouse sperm incubated in medium with TLR7 ligand; percentage of sperm floating in the upper layer; format: cell-based; details: 1 hour
[3] = system: bovine sperm; assay: Percentages of X-sperm and Y-sperm in floating bovine sperm by real-time PCR; format: cell-based; details: R-848 0.03 to 3 μM treatment groups
Procedure: A frozen bovine semen provided by the Oita Prefectural Agriculture, Forestry and Fisheries Research Center was used. The frozen sperm were melted, and washed with an albumin-free HTF medium. The bovine sperm were incubated in a medium prepared by adding albumin and a TLR7 ligand to HTF at 37° C., 5% CO2 for 1 hour. The TLR7 ligand used was R-848 or imiquimod R-837 (hereinafter referred to as R-837). The content of R-848 was 0 μM, 0.003 μM, 0.03 μM, 0.3 μM, or 3 μM. The content of R-837 was 0.003 μM, 0.03 μM, 0.3 μM, 3 μM, 30 μM, or 300 μM. Then, after collecting the floating sperm in the upper layer and extracting DNA, the percentages of X-sperm and Y-sperm were determined by real-time PCR.

[4] = system: mouse sperm; assay: Transfer of mouse blastocyst embryos from in vitro fertilization with floating sperm; sex of newborns; format: in vivo; details: blastocyst embryos from IVF with floating sperm from 0.3 μM treatment group transferred
[5] = system: mouse sperm; assay: Percentages of X-sperm and Y-sperm in floating mouse sperm by real-time PCR; format: cell-based; details: 0.3 and 3 μM treatment groups
Procedure: Mouse sperm were incubated in a medium prepared by adding albumin and a TLR7 ligand to an embryo culture medium (HTF) at 37° C., 5% CO2 for 1 hour. The TLR7 ligand used was Resiquimod R-848 (hereinafter referred to as R-848). The content of R-848 was 0 μM, 0.003 μM, 0.03 μM, 0.3 μM, 1.5 μM, or 3 μM. The sperm floating in the upper layer were collected, and DNA was extracted. Then, the percentages of X chromosome-bearing sperm (hereinafter referred to as X-sperm) and Y chromosome-bearing sperm (hereinafter referred to as Y-sperm) were determined by real-time PCR (polymerase chain reaction).

For `CCOCc1nc2c(N)nc3ccccc3c2n1CC(C)(C)O` [R-848, resiquimod], the “percentage of floating sperm in the upper layer compared to the non-treatment group” value [1] was “decreased by half”, the “percentage of sperm floating in the upper layer compared to the non-treatment group” value ([2]; 0.3 μM treatment group) was “halved” and the “percentage of sperm floating in the upper layer” value ([2]; R-848 0.003 to 3 μM, 37° C.) was “decreases depending on the concentration”. The “percentage of Y-sperm in floating sperm” value [3] was “higher percentage of Y-sperm”, the “newborns born as male” value [4] was 10 of 12 and the “percentage of Y-sperm in floating sperm” value [5] was “higher percentage of Y-sperm”.
